# Assay results taken from paper PMC10388543.
# Target: CdWRKY2 (bermudagrass [Cynodon dactylon (L.) Pers.])
# Experiment: two-hybrid; pGBKT7-CdWRKY2 co-transformed with pGADT7-MAPK3 or pGADT7-AtWRKY46 into Y2H gold strain; growth on SD/-Trp/-Leu and SD/-Trp/-Leu/-Ade/-His plates; pGBKT7-53/pGADT7-T as positive control
row,binding,Binder
1,binds,"AtMAPK3 (enzyme, UniProt Q39023 1-370) MNTGGGQYTDFPAVETHGGQFISYDIFGSLFEITSKYRPPIIPIGRGAYGIVCSVLDTETNELVAMKKIANAFDNHMDAKRTLREIKLLRHLDHENIIAIRDVVPPPLRRQFSDVYISTELMDTDLHQIIRSNQSLSEEHCQYFLYQLLRGLKYIHSANIIHRDLKPSNLLLNANCDLKICDFGLARPTSENDFMTEYVVTRWYRAPELLLNSSDYTAAIDVWSVGCIFMELMNRKPLFPGKDHVHQMRLLTELLGTPTESDLGFTHNEDAKRYIRQLPNFPRQPLAKLFSHVNPMAIDLVDRMLTFDPNRRITVEQALNHQYLAKLHDPNDEPICQKPFSFEFEQQPLDEEQIKEMIYQEAIALNPTYG"
2,no binding,"AtWRKY46 (protein, UniProt Q9SKD9 1-295) MMMEEKLVINELELGKELANRLMNNLKHTSSVDSNKTLISDILRIYQNAIFMLSFNQDKNILKRSLEIDGKDSKNVFKKRKVSEKNTEKVKVFVATEQENGSIDDGHCWRKYGQKEIHGSKNPRAYYRCTHRFTQDCLAVKQVQKSDTDPSLFEVKYLGNHTCNNITSPKTTTNFSVSLTNTNIFEGNRVHVTEQSEDMKPTKSEEVMISLEDLENKKNIFRTFSFSNHEIENGVWKSNLFLGNFVEDLSPATSGSAITSEVLSAPAAVENSETADSYFSSLDNIIDFGQDWLWS"

# No constants are given. Whether binding was seen depends on the method and setting. Binding can be weak; no strength is given.
